Some of the results follow. Many values rest on one well or one pass, so single values are uncertain.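 Imaging used 1,536-well plates; nuclei positive for cleaved PARP by antibody were divided by total DNA-stained nuclei to yield the apoptosis fraction. Doses for screening kept most cells viable, and cell lines differ markedly in resting and induced cleaved-PARP levels.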
Each compound was assayed on LB2518-MEL (assay: cleaved PARP positive nuclei fraction relative to DMSO control; melanoma cells; higher = more apoptosis). Conditions: library dose: low library concentration; 72 h.

Row | SMILES | cleaved PARP positive nuclei fraction
1 | CCc1ccc(CCOc2ccc(CC3SC(=O)NC3=O)cc2)nc1 (stereo unspecified) [pioglitazone] + CCCCCCCCCCCC1=C(O)C(=O)C=C(O)C1=O [Embelin] (first compound 2 µM, partner dose 1.2 µM) | 76.1%
2 | CN(C)S(=O)(=O)c1ccc2c(c1)/C(=C/c1cc3c([nH]1)CCCC3)C(=O)N2 + c1cc(-c2cnn3cc(-c4ccc(OCCN5CCCCC5)cc4)cnc23)ccn1 [Dorsomorphin] (first compound 0.4 µM, partner dose 0.4 µM) | 84.9%
3 | O=C(Nc1ccccc1)c1cc([N+](=O)[O-])ccc1Cl + O=c1cc(-c2cccc3c2Sc2ccccc2S3)oc(N2CCOCC2)c1 [KU55933] (first compound 2 µM, partner dose 1 µM) | 73.1%
4 | COc1cc2ncnc(Nc3ccc(Oc4ccccc4)cc3)c2cc1OC + O=C(O)C(=O)Nc1sc2c(c1C(=O)O)CCNC2 [TCS401] (first compound 2 µM, partner dose 1.66667 µM) | 54.9%
5 | COc1ccc(-c2ccc3c(N4CCOCC4)nc(N4C[C@@H](C)O[C@@H](C)C4)nc3n2)cc1CO + Oc1nc(-c2ccc(C(F)(F)F)cc2)nc2c1CSCC2 [XAV939] (first compound 0.02 µM, partner dose 2 µM) | 62.6%
6 | CN(NC(=O)CC(=O)NN(C)C(=S)c1ccccc1)C(=S)c1ccccc1 + CCc1ccc(CCOc2ccc(CC3SC(=O)NC3=O)cc2)nc1 [pioglitazone] (first compound 0.006 µM, partner dose 2 µM) | 220%
7 | CCc1ccc(CCOc2ccc(CC3SC(=O)NC3=O)cc2)nc1 (stereo unspecified) [pioglitazone] + Cc1cc([N+](=O)[O-])ccc1NS(=O)(=O)c1cc(Cl)ccc1Cl [FH535] (first compound 2 µM, partner dose 1 µM) | 190%
8 | CCN(CC)CCCCNc1ncc2cc(-c3cc(OC)cc(OC)c3)c(NC(=O)NC(C)(C)C)nc2n1 + O=c1cc(-c2cccc3c2Sc2ccccc2S3)oc(N2CCOCC2)c1 [KU55933] (first compound 0.1 µM, partner dose 1 µM) | 81.6%
9 | COc1ccc(COc2ccc(Cc3cnc(N)nc3N)cc2OC)cc1 + O=C1NC(=O)/C(=C/c2ccc(-c3ccc(F)cc3O)o2)S1 [AS252424] (first compound 1 µM, partner dose 1 µM) | 101%
10 | Oc1cc(-c2nc(-c3ccccc3)[nH]c2-c2ccncc2)ccc1Cl + Cn1cc(/C=C2\C(=O)Nc3cccnc32)c2ccccc21 [GW441756] (first compound 0.2 µM, partner dose 0.4 µM) | 75.1%
11 | NCC(=O)Nc1ccc(-n2nc(C(F)(F)F)cc2-c2ccc3c(ccc4ccccc43)c2)cc1 + Oc1cc(-c2nc(-c3ccccc3)[nH]c2-c2ccncc2)ccc1Cl [L779450] (first compound 1 µM, partner dose 0.2 µM) | 102%
12 | O=S(=O)(c1ccccc1)N(CC(F)(F)F)c1ccc(C(O)(C(F)(F)F)C(F)(F)F)cc1 + CC(C)CCN1c2nc(Nc3cc(F)c(O)c(F)c3)ncc2N(C)C(=O)C1C [BID1870] (first compound 1.4 µM, partner dose 0.2 µM) | 154%
13 | Cn1cc(/C=C2\C(=O)Nc3cccnc32)c2ccccc21 + CC(C)CCN1c2nc(Nc3cc(F)c(O)c(F)c3)ncc2N(C)C(=O)C1C [BID1870] (first compound 0.4 µM, partner dose 0.2 µM) | 95.1%
14 | O=C1NC(=O)/C(=C/c2ccc(-c3ccc(F)cc3O)o2)S1 + COc1cc(N2CCC(N3CCN(C)CC3)CC2)ccc1Nc1ncc(Cl)c(Nc2ccccc2S(=O)(=O)C(C)C)n1 [NVP-TAE684] (first compound 1 µM, partner dose 0.08 µM) | 90.8%
15 | N#Cc1c(O)c2c(-c3ccc(-c4ccccc4O)cc3)csc2[nH]c1=O + CCN(CC)CCCCNc1ncc2cc(-c3cc(OC)cc(OC)c3)c(NC(=O)NC(C)(C)C)nc2n1 [PD173074] (first compound 2 µM, partner dose 0.1 µM) | 90%
16 | CN(C)S(=O)(=O)c1ccc2c(c1)/C(=C/c1cc3c([nH]1)CCCC3)C(=O)N2 + COc1ccc2c(c1)CCC1C2CCC2(C)C(NCCCCCCN3C(=O)C=CC3=O)CCC12 [U73122] (first compound 0.4 µM, partner dose 0.4 µM) | 236%
17 | Oc1cc(-c2nc(-c3ccccc3)[nH]c2-c2ccncc2)ccc1Cl + c1cc(-c2cnn3cc(-c4ccc(OCCN5CCCCC5)cc4)cnc23)ccn1 [Dorsomorphin] (first compound 0.2 µM, partner dose 0.4 µM) | 96.6%
18 | Oc1nc(-c2ccc(C(F)(F)F)cc2)nc2c1CSCC2 + CCCCCCCCCCCC1=C(O)C(=O)C=C(O)C1=O [Embelin] (first compound 2 µM, partner dose 1.2 µM) | 79.8%

Looked up above:
cleaved PARP positive nuclei fraction, CN(C)S(=O)(=O)c1ccc2c(c1)/C(=C/c1cc3c([nH]1)CCCC3)C(=O)N2 + c1cc(-c2cnn3cc(-c4ccc(OCCN5CCCCC5)cc4)cnc23)ccn1 [Dorsomorphin] (first compound 0.4 µM, partner dose 0.4 µM) is entered as 84.9%
cleaved PARP positive nuclei fraction, Oc1nc(-c2ccc(C(F)(F)F)cc2)nc2c1CSCC2 + CCCCCCCCCCCC1=C(O)C(=O)C=C(O)C1=O [Embelin] (first compound 2 µM, partner dose 1.2 µM) is entered as 79.8%

(cont.)

Row | SMILES | cleaved PARP positive nuclei fraction
19 | CN(C)S(=O)(=O)c1ccc2c(c1)/C(=C/c1cc3c([nH]1)CCCC3)C(=O)N2 + CCN(CC)CCCCNc1ncc2cc(-c3cc(OC)cc(OC)c3)c(NC(=O)NC(C)(C)C)nc2n1 [PD173074] (first compound 0.4 µM, partner dose 0.1 µM) | 184%
20 | COc1ccc(-c2ccc3c(N4CCOCC4)nc(N4C[C@@H](C)O[C@@H](C)C4)nc3n2)cc1CO + O=c1cc(-c2cccc3c2Sc2ccccc2S3)oc(N2CCOCC2)c1 [KU55933] (first compound 0.02 µM, partner dose 1 µM) | 59.3%
21 | NCC(=O)Nc1ccc(-n2nc(C(F)(F)F)cc2-c2ccc3c(ccc4ccccc43)c2)cc1 + Cn1cc(/C=C2\C(=O)Nc3cccnc32)c2ccccc21 [GW441756] (first compound 1 µM, partner dose 0.4 µM) | 255%
22 | COc1ccc(-c2ccc3c(N4CCOCC4)nc(N4C[C@@H](C)O[C@@H](C)C4)nc3n2)cc1CO + CC(C)CCN1c2nc(Nc3cc(F)c(O)c(F)c3)ncc2N(C)C(=O)C1C [BID1870] (first compound 0.02 µM, partner dose 0.2 µM) | 349%
23 | CCN(CC)CCCCNc1ncc2cc(-c3cc(OC)cc(OC)c3)c(NC(=O)NC(C)(C)C)nc2n1 + Cc1cc([N+](=O)[O-])ccc1NS(=O)(=O)c1cc(Cl)ccc1Cl [FH535] (first compound 0.1 µM, partner dose 1 µM) | 111%
24 | COc1cc2c(Oc3ccc4[nH]c(C)cc4c3F)ncnc2cc1OCCCN1CCCC1 [cediranib] + CCN(CC)CCCCNc1ncc2cc(-c3cc(OC)cc(OC)c3)c(NC(=O)NC(C)(C)C)nc2n1 [PD173074] (first compound 0.4 µM, partner dose 0.1 µM) | 102%
25 | O=C(O)c1ccc(-c2c[nH]c3ncc(-c4ccccc4)cc23)cc1C1CCCC1 + Cn1cc(/C=C2\C(=O)Nc3cccnc32)c2ccccc21 [GW441756] (first compound 0.16 µM, partner dose 0.4 µM) | 75.5%
26 | O=C(O)c1ccc(-c2c[nH]c3ncc(-c4ccccc4)cc23)cc1C1CCCC1 + Oc1nc(-c2ccc(C(F)(F)F)cc2)nc2c1CSCC2 [XAV939] (first compound 0.16 µM, partner dose 2 µM) | 61.6%
27 | N#Cc1c(O)c2c(-c3ccc(-c4ccccc4O)cc3)csc2[nH]c1=O + COc1cc(N2CCC(N3CCN(C)CC3)CC2)ccc1Nc1ncc(Cl)c(Nc2ccccc2S(=O)(=O)C(C)C)n1 [NVP-TAE684] (first compound 2 µM, partner dose 0.08 µM) | 39.6%
28 | Oc1cc(-c2nc(-c3ccccc3)[nH]c2-c2ccncc2)ccc1Cl + COc1cc(N2CCC(N3CCN(C)CC3)CC2)ccc1Nc1ncc(Cl)c(Nc2ccccc2S(=O)(=O)C(C)C)n1 [NVP-TAE684] (first compound 0.2 µM, partner dose 0.08 µM) | 273%
29 | COc1ccc2c(c1)CCC1C2CCC2(C)C(NCCCCCCN3C(=O)C=CC3=O)CCC12 (stereo unspecified) + Oc1cc(-c2nc(-c3ccccc3)[nH]c2-c2ccncc2)ccc1Cl [L779450] (first compound 0.4 µM, partner dose 0.2 µM) | 108%
30 | COc1cc2c(Oc3ccc4[nH]c(C)cc4c3F)ncnc2cc1OCCCN1CCCC1 [cediranib] + Oc1cc(-c2nc(-c3ccccc3)[nH]c2-c2ccncc2)ccc1Cl [L779450] (first compound 0.4 µM, partner dose 0.2 µM) | 87%
31 | O=S(=O)(c1ccccc1)N(CC(F)(F)F)c1ccc(C(O)(C(F)(F)F)C(F)(F)F)cc1 + Cn1cc(/C=C2\C(=O)Nc3cccnc32)c2ccccc21 [GW441756] (first compound 1.4 µM, partner dose 0.4 µM) | 71.8%
32 | N#Cc1c(O)c2c(-c3ccc(-c4ccccc4O)cc3)csc2[nH]c1=O + CC(C)CCN1c2nc(Nc3cc(F)c(O)c(F)c3)ncc2N(C)C(=O)C1C [BID1870] (first compound 2 µM, partner dose 0.2 µM) | 48.6%
33 | O=S(=O)(c1ccccc1)N(CC(F)(F)F)c1ccc(C(O)(C(F)(F)F)C(F)(F)F)cc1 + Oc1cc(-c2nc(-c3ccccc3)[nH]c2-c2ccncc2)ccc1Cl [L779450] (first compound 1.4 µM, partner dose 0.2 µM) | 179%
34 | CN(NC(=O)CC(=O)NN(C)C(=S)c1ccccc1)C(=S)c1ccccc1 + COC(=O)c1sccc1S(=O)(=O)Nc1ccc(Nc2ccccc2)cc1OC [GSK0660] (first compound 0.006 µM, partner dose 1 µM) | 212%
35 | COc1cc2c(Oc3ccc4[nH]c(C)cc4c3F)ncnc2cc1OCCCN1CCCC1 [cediranib] + O=C(O)C(=O)Nc1sc2c(c1C(=O)O)CCNC2 [TCS401] (first compound 0.4 µM, partner dose 1.66667 µM) | 75.4%
36 | COC(=O)c1sccc1S(=O)(=O)Nc1ccc(Nc2ccccc2)cc1OC + CCCCCCCCCCCC1=C(O)C(=O)C=C(O)C1=O [Embelin] (first compound 1 µM, partner dose 1.2 µM) | 100%
